Data source: PubChem BioAssay AID1259254 (NCATS, 2017)

- Aim: 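Gene knock-downs that lead to re-replication, shown by excess G2 DNA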 (primary screen)
- Cells: human HCT116 colorectal cancer cells
- Reagent: single siRNA against human genes
- Timing: 3 days
- Detection: 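Imaged Hoechst DNA stain sorts each cell into a cycle phase by DNA amount; per plate, G2 fraction set to 0% for non-targeting and 100% for GMNN siRNA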
- Scale: G2 robust z-score and G2 cells, % of GMNN control: higher = more G2 cells, more excess DNA replication
- Active means: 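An siRNA counts as active if its G2 robust z-score lies at least 5 MADs above the screen median; here such calls match roughly 38% of GMNN control or more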
In all, the deposit lists about 59,000 reagents; below is an unselected part. Of all reagents, about 1,550 (2.6%) were called active. 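G2 share is only a proxy for re-replication; each gene was hit by three separate siRNAs, and active genes were retested.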 Reagents against one gene are numbered here. Not all columns of the deposit are shown. The record does not give: the amount of reagent.

SLC10A7 #1
- G2 robust z-score: -0.951
- G2 cells, % of GMNN control: -3.72
- Outcome: inactive

SLC10A7 #2
- G2 robust z-score: 0.0185
- G2 cells, % of GMNN control: 3.1
- Outcome: inactive

SLC10A7 #3
- G2 robust z-score: 0.0591
- G2 cells, % of GMNN control: 3.38
- Outcome: inactive

TJP2 #1
- G2 robust z-score: -0.751
- G2 cells, % of GMNN control: -2.32
- Outcome: inactive

TJP2 #2
- G2 robust z-score: -0.687
- G2 cells, % of GMNN control: -1.87
- Outcome: inactive

TJP2 #3
- G2 robust z-score: -0.29
- G2 cells, % of GMNN control: 0.929
- Outcome: inactive

MYCLP2 #1
- G2 robust z-score: 1.39
- G2 cells, % of GMNN control: 12.8
- Outcome: inactive

MYCLP2 #2
- G2 robust z-score: 0.712
- G2 cells, % of GMNN control: 7.97
- Outcome: inactive

MYCLP2 #3
- G2 robust z-score: 0.513
- G2 cells, % of GMNN control: 6.57
- Outcome: inactive

RPLP2 #1
- G2 robust z-score: 2.57
- G2 cells, % of GMNN control: 21
- Outcome: inactive

RPLP2 #2
- G2 robust z-score: 0.865
- G2 cells, % of GMNN control: 9.05
- Outcome: inactive

RPLP2 #3
- G2 robust z-score: 0.93
- G2 cells, % of GMNN control: 9.51
- Outcome: inactive

DYRK4 #1
- G2 robust z-score: 1.31
- G2 cells, % of GMNN control: 12.2
- Outcome: inactive

DYRK4 #2
- G2 robust z-score: 5.2
- G2 cells, % of GMNN control: 39.6
- Outcome: active

DYRK4 #3
- G2 robust z-score: 0.838
- G2 cells, % of GMNN control: 8.87
- Outcome: inactive

CAMK4 #1
- G2 robust z-score: -0.548
- G2 cells, % of GMNN control: -0.891
- Outcome: inactive

CAMK4 #2
- G2 robust z-score: -0.363
- G2 cells, % of GMNN control: 0.415
- Outcome: inactive

CAMK4 #3
- G2 robust z-score: -0.467
- G2 cells, % of GMNN control: -0.319
- Outcome: inactive

KCTD9 #1
- G2 robust z-score: 0.237
- G2 cells, % of GMNN control: 4.63
- Outcome: inactive

KCTD9 #2
- G2 robust z-score: 1.77
- G2 cells, % of GMNN control: 15.4
- Outcome: inactive

KCTD9 #3
- G2 robust z-score: 0.856
- G2 cells, % of GMNN control: 8.99
- Outcome: inactive

UBE2I #1
- G2 robust z-score: 6.31
- G2 cells, % of GMNN control: 47.4
- Outcome: active

UBE2I #2
- G2 robust z-score: -0.0836
- G2 cells, % of GMNN control: 2.38
- Outcome: inactive

UBE2I #3
- G2 robust z-score: 2.35
- G2 cells, % of GMNN control: 19.5
- Outcome: inactive

Ordered by “G2 robust z-score” (high to low): some entries from above.
SLC10A7 #3
- G2 robust z-score: 0.0591
- G2 cells, % of GMNN control: 3.38
- Outcome: inactive

TJP2 #1
- G2 robust z-score: -0.751
- G2 cells, % of GMNN control: -2.32
- Outcome: inactive
